The source of these data is article PMC6639074.

Amino acid sequences for entries named in this document (tags omitted). A change or cut given only in a name is not applied to a line headed by its entry. Chains listed by the source or under a name are the forms on record and can include a tag or linker.
Cdc42(T17N)-BirA*-HA-MAO (P60953, form named): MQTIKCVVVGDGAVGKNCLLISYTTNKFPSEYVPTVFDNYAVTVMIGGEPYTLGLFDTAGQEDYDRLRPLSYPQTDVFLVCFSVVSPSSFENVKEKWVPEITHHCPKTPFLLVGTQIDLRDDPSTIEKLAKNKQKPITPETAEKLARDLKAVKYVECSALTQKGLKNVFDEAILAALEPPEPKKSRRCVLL
Cdc42(G12V)-BirA*-HA-MAO (P60953, form named): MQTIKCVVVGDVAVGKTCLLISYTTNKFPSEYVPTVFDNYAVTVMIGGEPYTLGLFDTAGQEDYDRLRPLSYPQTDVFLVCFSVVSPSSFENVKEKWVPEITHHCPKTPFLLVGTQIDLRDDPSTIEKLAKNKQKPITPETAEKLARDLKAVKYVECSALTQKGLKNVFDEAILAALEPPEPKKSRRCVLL
UniProt P20340: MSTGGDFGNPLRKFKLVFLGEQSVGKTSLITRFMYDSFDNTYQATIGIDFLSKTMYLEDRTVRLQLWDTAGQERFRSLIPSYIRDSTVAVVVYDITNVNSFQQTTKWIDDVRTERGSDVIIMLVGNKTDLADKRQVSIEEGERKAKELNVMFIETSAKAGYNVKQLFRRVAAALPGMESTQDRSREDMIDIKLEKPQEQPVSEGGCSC
N-Ras(G12D)-BirA*-HA-MAO (P01111, form named): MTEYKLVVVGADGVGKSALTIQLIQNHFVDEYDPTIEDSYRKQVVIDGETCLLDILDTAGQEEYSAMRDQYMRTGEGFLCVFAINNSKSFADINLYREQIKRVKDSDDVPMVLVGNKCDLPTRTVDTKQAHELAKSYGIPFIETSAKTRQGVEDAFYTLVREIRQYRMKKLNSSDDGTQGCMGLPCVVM
UniProt Q9NP72: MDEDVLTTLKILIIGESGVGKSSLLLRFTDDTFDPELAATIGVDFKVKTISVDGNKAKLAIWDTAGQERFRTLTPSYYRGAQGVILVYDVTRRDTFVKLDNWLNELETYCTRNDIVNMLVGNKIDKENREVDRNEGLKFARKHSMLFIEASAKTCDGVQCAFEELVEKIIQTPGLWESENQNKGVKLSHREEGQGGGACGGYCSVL
UniProt P61026: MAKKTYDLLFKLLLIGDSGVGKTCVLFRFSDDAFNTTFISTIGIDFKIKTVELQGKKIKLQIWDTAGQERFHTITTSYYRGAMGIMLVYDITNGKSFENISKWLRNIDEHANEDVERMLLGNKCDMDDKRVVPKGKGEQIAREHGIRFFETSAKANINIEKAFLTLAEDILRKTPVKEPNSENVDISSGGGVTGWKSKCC
Rab5A(S34N)-BirA*-HA-MAO (P20339, form named): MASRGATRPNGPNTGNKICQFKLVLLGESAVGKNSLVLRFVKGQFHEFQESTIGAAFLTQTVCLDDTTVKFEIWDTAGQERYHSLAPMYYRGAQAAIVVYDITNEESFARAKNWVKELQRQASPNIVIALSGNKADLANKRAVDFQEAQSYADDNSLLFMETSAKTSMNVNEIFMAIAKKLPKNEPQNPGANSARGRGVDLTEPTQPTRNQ
Rab5A(Q79L)-BirA*-HA-MAO (P20339, form named): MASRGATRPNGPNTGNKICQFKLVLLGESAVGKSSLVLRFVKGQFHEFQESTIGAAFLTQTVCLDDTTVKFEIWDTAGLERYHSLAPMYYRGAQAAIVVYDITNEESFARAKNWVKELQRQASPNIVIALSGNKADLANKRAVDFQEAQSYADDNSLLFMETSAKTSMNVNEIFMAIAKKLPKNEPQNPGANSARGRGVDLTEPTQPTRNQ
UniProt P61586: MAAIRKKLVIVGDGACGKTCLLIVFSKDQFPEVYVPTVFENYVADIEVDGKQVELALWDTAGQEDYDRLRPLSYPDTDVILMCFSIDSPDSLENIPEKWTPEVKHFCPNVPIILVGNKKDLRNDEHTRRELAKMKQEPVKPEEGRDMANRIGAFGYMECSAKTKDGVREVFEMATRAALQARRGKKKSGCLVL
UniProt P61006: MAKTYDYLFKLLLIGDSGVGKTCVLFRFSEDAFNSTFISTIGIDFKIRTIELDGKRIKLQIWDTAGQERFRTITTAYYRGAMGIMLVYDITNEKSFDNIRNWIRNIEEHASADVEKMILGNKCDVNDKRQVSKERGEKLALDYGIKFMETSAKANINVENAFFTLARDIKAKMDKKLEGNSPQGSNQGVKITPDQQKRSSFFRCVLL
UniProt P61019: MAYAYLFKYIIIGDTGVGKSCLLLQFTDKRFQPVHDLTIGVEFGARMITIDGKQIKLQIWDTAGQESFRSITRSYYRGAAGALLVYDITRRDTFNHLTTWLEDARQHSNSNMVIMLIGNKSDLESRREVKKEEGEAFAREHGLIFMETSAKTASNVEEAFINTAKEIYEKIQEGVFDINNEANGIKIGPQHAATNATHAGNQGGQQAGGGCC
UniProt Q15075: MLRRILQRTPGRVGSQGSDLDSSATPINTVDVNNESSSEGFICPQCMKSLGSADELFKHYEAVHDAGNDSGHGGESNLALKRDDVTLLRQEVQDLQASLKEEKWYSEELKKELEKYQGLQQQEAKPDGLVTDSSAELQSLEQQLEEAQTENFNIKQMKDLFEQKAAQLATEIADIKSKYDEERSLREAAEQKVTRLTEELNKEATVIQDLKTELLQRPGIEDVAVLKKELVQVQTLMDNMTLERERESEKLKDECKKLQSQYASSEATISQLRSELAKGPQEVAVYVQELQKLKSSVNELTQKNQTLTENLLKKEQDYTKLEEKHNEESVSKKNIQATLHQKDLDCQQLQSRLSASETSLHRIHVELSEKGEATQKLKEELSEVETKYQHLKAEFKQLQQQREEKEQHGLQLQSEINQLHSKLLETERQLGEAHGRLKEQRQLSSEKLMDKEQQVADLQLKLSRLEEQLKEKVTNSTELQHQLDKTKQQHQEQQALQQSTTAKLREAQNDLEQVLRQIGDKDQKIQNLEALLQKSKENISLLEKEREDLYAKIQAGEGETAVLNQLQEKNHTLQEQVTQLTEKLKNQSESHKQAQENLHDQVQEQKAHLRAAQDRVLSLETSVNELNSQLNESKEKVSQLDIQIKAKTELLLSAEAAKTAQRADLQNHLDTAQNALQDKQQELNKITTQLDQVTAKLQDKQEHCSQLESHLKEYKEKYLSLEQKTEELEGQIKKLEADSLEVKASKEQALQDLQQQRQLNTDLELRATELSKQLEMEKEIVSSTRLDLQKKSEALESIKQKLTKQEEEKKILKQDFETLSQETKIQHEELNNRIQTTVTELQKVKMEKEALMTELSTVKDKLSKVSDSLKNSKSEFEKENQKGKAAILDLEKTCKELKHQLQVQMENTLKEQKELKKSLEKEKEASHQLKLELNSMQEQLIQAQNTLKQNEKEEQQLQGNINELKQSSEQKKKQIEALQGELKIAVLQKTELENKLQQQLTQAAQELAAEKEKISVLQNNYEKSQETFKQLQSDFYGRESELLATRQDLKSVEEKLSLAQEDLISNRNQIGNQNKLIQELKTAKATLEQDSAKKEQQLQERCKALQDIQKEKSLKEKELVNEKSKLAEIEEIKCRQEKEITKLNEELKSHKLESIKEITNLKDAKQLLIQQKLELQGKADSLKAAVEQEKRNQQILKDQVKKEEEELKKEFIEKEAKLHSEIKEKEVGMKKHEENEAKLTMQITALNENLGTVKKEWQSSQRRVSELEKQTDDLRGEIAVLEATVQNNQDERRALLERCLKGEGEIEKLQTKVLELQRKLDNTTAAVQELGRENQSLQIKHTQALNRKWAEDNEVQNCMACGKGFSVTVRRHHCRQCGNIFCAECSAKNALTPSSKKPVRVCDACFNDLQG
UniProt Q9UJ41: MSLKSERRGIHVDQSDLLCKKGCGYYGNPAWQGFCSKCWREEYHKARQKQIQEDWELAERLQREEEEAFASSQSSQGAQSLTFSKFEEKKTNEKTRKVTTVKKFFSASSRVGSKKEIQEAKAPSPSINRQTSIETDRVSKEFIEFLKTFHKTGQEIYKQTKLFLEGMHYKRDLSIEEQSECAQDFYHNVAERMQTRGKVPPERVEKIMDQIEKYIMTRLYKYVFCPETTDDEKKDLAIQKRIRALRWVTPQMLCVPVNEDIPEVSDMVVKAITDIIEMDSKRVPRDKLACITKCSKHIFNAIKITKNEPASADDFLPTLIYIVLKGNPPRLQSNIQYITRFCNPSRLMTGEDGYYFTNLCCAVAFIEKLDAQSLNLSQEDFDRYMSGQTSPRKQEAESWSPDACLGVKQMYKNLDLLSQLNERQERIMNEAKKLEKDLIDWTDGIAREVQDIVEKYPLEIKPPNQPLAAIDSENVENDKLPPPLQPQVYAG
UniProt Q9Y597: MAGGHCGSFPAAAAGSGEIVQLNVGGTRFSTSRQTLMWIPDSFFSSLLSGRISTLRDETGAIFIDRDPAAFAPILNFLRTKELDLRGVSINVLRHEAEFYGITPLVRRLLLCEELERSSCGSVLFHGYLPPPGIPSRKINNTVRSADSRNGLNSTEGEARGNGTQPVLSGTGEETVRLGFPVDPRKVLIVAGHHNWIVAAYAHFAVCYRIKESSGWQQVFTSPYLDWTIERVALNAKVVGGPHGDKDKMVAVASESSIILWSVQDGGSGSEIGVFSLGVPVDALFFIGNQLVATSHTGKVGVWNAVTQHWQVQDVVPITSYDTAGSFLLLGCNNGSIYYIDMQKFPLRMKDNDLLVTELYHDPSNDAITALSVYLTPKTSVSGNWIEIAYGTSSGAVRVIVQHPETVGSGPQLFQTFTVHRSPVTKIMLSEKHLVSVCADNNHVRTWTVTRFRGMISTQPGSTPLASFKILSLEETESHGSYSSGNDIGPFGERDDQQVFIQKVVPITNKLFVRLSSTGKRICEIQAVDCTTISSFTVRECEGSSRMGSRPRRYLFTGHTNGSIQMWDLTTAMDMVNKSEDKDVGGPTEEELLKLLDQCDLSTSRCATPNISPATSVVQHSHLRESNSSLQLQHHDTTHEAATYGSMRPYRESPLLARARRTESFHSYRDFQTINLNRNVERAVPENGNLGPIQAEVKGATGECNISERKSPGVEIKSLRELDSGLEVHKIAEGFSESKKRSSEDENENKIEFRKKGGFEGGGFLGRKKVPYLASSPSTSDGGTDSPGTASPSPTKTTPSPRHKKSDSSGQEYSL
UniProt Q9NZN5: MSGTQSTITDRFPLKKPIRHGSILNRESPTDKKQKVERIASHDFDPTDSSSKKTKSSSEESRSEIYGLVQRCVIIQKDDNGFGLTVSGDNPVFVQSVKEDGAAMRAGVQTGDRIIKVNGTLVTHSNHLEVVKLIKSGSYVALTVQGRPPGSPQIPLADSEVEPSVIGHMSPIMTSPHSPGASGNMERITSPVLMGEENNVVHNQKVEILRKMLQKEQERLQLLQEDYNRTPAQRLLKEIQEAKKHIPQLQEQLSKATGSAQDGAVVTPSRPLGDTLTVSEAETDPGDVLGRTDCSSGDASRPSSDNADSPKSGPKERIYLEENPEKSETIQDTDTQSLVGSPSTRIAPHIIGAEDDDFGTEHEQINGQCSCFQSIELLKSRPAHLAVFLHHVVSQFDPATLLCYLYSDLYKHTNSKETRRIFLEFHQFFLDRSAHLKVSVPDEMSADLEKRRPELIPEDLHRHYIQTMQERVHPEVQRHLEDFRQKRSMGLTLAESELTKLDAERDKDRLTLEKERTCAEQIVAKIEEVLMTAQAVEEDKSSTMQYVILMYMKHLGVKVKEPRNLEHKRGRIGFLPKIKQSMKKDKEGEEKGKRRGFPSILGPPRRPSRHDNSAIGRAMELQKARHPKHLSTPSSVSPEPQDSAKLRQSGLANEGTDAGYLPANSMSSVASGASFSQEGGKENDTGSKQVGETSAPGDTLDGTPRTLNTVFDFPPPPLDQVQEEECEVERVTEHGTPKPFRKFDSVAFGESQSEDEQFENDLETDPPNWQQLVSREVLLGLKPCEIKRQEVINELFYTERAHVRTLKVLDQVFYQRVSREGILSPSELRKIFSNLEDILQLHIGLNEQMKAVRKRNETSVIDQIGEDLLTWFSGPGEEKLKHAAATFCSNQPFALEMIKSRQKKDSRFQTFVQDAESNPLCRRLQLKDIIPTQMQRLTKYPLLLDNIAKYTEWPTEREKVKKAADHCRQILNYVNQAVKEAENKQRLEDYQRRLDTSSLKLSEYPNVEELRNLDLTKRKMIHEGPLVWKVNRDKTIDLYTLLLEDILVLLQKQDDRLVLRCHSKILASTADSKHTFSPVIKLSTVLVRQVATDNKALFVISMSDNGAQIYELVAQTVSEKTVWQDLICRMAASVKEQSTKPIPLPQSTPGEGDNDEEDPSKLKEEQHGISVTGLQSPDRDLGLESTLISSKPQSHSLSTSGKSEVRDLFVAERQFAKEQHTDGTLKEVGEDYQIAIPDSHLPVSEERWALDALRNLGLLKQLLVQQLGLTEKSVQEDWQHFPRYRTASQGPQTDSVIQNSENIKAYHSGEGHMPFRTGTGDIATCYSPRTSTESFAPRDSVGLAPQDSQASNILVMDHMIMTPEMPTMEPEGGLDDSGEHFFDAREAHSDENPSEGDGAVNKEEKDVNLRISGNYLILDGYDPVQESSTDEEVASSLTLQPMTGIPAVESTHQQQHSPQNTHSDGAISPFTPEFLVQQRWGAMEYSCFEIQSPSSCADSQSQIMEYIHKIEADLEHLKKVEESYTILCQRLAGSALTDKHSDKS

In assay [1] the target is Cdc42(T17N)-BirA*-HA-MAO (human) (UniProt P60953). The assay is described as follows: proximity labelling; MitoID: GTPase-BirA*-HA-MAO chimera on mitochondria of transiently transfected HEK293T cells, 50 uM biotin 18 h, streptavidin beads, mass spectrometry, biological triplicates; hits by WD scores and volcano plots against the GDP-locked forms.
Assay [2] deals with Cdc42(G12V)-BirA*-HA-MAO (human) (UniProt P60953). The description is as above.
The target in assay [3] is Rab6A(Q72L)-BirA*-HA-MAO (human) (UniProt P20340). The assay is described as above.
Assay [4] concerns the target N-Ras(G12D)-BirA*-HA-MAO (human) (UniProt P01111). Described as above.
The target in assay [5] is Rab18(Q67L)-BirA*-HA-MAO (human) (UniProt Q9NP72). Described as above.
Assay [6] deals with Rab10(Q68L)-BirA*-HA-MAO (human) (UniProt P61026). The assay is described as above.
The target in assay [7] is Rab5A(S34N)-BirA*-HA-MAO (human) (UniProt P20339). Described as above.
For assay [8], the target named is Rab5A(Q79L)-BirA*-HA-MAO (human) (UniProt P20339). The description is as above.
The target of assay [9] is Rab5A(Q79L) with Ser84 mutated to alanine, BirA*-HA-MAO chimera (human) (UniProt P20339). The experiment in a line: proximity labelling; MitoID with versions of Rab5A(Q79L), streptavidin precipitates immunoblotted for Rab5 effectors. For orientation: In western blotting, separated proteins are transferred to a membrane and probed.
Assay [10] deals with Rab5A(Q79L)-BirA*-HA-MAO (human) (UniProt P20339). The assay is described as above.
Assay [11] has as its target Rab5A(Q79L) with Ser84 mutated to glutamate, BirA*-HA-MAO chimera (human) (UniProt P20339). The assay is described as above.
For assay [12], the target named is RhoA(Q63L)-BirA*-HA-MAO (human) (UniProt P61586). The experiment in a line: proximity labelling; MitoID: GTPase-BirA*-HA-MAO chimera on mitochondria of transiently transfected HEK293T cells, 50 uM biotin 18 h, streptavidin beads, mass spectrometry, biological triplicates; hits by WD scores and volcano plots against the GDP-locked forms.
Assay [13] deals with Rab8A(Q67L)-BirA*-HA-MAO (human) (UniProt P61006). Described as above.
Assay [14] has as its target Rab2A(Q65L)-BirA*-HA-MAO (human) (UniProt P61019). Described as above.
Assay [15] has as its target Rab33B(Q92L)-BirA*-HA-MAO (human) (UniProt Q9H082). The assay is described as above.
Assay [16] concerns the target T1, RalB(G23V)-BirA*-HA-MAO (human) (UniProt P11234).
T1 sequence: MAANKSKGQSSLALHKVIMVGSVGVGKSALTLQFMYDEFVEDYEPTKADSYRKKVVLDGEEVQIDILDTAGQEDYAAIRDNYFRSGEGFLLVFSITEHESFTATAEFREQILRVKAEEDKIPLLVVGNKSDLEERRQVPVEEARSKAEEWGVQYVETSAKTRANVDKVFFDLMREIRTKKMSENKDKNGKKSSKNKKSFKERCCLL
The assay is described as above.

Assay [17] has as its target T2, Rab9A(Q66L)-BirA*-HA-MAO (human) (UniProt P51151).
T2 sequence: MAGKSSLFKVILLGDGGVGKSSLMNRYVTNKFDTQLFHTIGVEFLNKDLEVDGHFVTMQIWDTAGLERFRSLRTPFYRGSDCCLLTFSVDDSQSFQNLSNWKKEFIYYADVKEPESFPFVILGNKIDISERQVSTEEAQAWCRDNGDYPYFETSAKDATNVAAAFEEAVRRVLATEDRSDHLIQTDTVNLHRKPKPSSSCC
The assay is described as above.

Assay [18] has as its target T3, Rab30(Q68L)-BirA*-HA-MAO (human) (UniProt Q15771).
T3 sequence: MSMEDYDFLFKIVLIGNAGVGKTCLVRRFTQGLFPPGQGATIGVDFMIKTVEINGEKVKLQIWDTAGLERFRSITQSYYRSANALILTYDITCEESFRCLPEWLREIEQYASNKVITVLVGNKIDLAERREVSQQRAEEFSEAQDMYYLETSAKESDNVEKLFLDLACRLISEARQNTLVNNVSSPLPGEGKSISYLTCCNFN
The description is as above.

Results are given in words; binding and its absence hold for the method and conditions named. In cells and extracts the contact can be indirect. These calls come from enrichment with a bait or labelling near it, and not all partners need be listed. For some of these results: Sequences can lack the tags named with a protein.

Consider DOCK7 (from UniProt Q96N67 1-2140), for which, in assay [1], the binding entry is “binds”.
For the substance SHKBP1 (from UniProt Q8TBC3 1-707), in [2], the binding result is reported as “binds”.
On to ERC1 (from UniProt Q8IUD2 1-1116), for which the binding result in assay [3] is “binds”.
Consider RAPGEF6 (from UniProt Q8TEU7 1-1601), for which the binding result in assay [4] is on record as “binds”.
For the substance NAG/NBAS (from UniProt A2RRP1 1-2371), the binding entry in assay [5] is “binds”.
Regarding EXOC6 (from UniProt Q8TAG9 1-804), in assay [6], the binding entry is “binds”.
Regarding FAM135A (from UniProt Q9P2D6 1-1515), the binding entry in assay [7] is reported as “binds”.
As for ALS2/alsin (from UniProt Q96Q42 1-1657), the binding result in assay [7] is given as “binds”.
In the case of DOCK11 (from UniProt Q5JSL3 1-2073), the binding entry in assay [1] is “binds”.
With EEA1 (from UniProt Q15075 1-1411), the binding entry in assay [8], in assay [9], in assay [10] and in assay [11] was “binds” each time.
CIT/Citron (from UniProt O14578 1-2027): in assay [12], the binding result was “binds”.
MAP4K5 (from UniProt Q9Y4K4 1-846): the binding result in [13] and in assay [6] was “binds” in each case.
INPP5B (from UniProt P32019 1-993): in assay [14], the binding result is “binds”.
For MAP4K3 (from UniProt Q8IVH8 1-894), the binding result in assay [13] and in [6] was “binds” each time.
For Huntingtin (from UniProt P42858 1-3142), the binding result in assay [8] is “binds”.
For the substance “PDE4DIP/myomegalin (from UniProt Q5VU43 1-2346)”, the binding entry in assay [3] is given as “binds”.
On to OCRL (from UniProt Q01968 1-901), for which the binding entry in assay [13] and in assay [6] was “binds” each time.
On to RTKN (from UniProt Q9BST9 1-563), for which the binding result in assay [12] is listed as “binds”.
For “ARHGEF11/PDX-RhoGEF (from UniProt O15085 1-1522)”, the binding result in assay [2] is recorded as “binds”.
Regarding RUFY1 (from UniProt Q96T51 1-708), the binding result in assay [14] is reported as “binds”.
Turning to RABGAP1 (from UniProt Q9Y3P9 1-1069), the binding result in assay [3] is listed as “binds”.
For the substance “CCDC186/CCCP-1 (from UniProt Q7Z3E2 1-898)”, the binding entry in assay [14] is recorded as “binds”.
As for GBF1 (from UniProt Q92538 1-1860), the binding result in assay [14] is reported as “binds”.
For the substance “WDR7/Rabconnectin-3β (from UniProt Q9Y4E6 1-1490)”, the binding result in assay [8] is given as “binds”.
Consider Rabex-5 (from UniProt Q9UJ41 1-491), for which the binding entry in assay [8], in assay [7] and in assay [15] was “binds” throughout.
Turning to KCTD3 (from UniProt Q9Y597 1-815), the binding result in [2] is “binds”.
For the substance RALGAPA2 (from UniProt Q2PPJ7 1-1873), the binding result in assay [16] is “binds”.
As for PICK1 (from UniProt Q9NRD5 1-415), in assay [14], the binding entry is reported as “binds”.
Still for that read-out and setting: for ARFGEF3 (from UniProt Q5TH69 1-2177) the value was “binds”.
Regarding ARHGAP5 (from UniProt Q13017 1-1502), the binding result in assay [12] is on record as “binds”.
In the case of “ARHGAP32/p250GAP (from UniProt A7KAX9 1-2087)”, the binding entry in assay [1] and in assay [2] was “binds” throughout.
EXOC2/Sec5 (from UniProt Q96KP1 1-924): the binding result in assay [16] is “binds”.
For KIF3A (from UniProt Q9Y496 1-699), the binding entry in assay [6] was “binds”.
As to MICAL3 (from UniProt Q7RTP6 1-2002), the binding result in assay [13] and in assay [6] was “binds” each time.
For the substance MYO5A (from UniProt Q9Y4I1 1-1855), the binding entry in assay [13] is on record as “binds”.
Take ARHGAP31 (from UniProt Q2M1Z3 1-1444): the binding entry in assay [2] is “binds”.
Take MICALL1 (from UniProt Q8N3F8 1-863): the binding result in assay [17] is “binds”.
As for PHLDB3 (from UniProt Q6NSJ2 1-640), the binding result in assay [18] is reported as “binds”.
Consider “ARHGEF40/Solo (from UniProt Q8TER5 1-1519)”, for which the binding entry in [2] is “binds”.
Turning to RABGAP1L (from UniProt Q5R372 1-815), in assay [3], the binding result is “binds”.
Turning to “GCC2/golgin-185 (from UniProt Q8IWJ2 1-1684)”, the binding entry in assay [17] and in assay [15] was “binds” in each case.
On to “p150/glued subunit of dynactin (DCNT1) (from UniProt Q14203 1-1278)”, for which, in assay [3], the binding result is recorded as “binds”.
In the case of TBC1D5 (from UniProt Q92609 1-795), the binding result in [5] is reported as “binds”.
In the case of “ARHGEF12/LARG (from UniProt Q9NZN5 1-1544)”, the binding entry in assay [2] is “binds”.
Take RALGAPA1 (from UniProt Q6GYQ0 1-2036): in [16], the binding result is reported as “binds”.
Turning to DOCK9 (from UniProt Q9BZ29 1-2069), in assay [1], the binding entry is “binds”.
For MYO5C (from UniProt Q9NQX4 1-1742), the binding result in assay [6] is “binds”.
